Experimental data reported in patent US20240376057A1, “2,4-DIOXO-1,2,3,4-TETRAHYDROPYRIMIDINE DERIVATIVES AND THEIR USE IN THE TREATMENT OF TUMORS” (ISTITUTO PASTEUR ITALIA, priority 2021, published 2024).
At least one structure is not confirmed: it was looked up by name or label, or the drawing left a doubt.

System: Panc1 cells
Assay: Panc1 pancreatic tumor cell proliferation, Trypan Blue exclusion
Format: cell-based, human
Excerpt: The inventor tested compound #1-IPI/01.LF on the proliferation of human pancreatic ductal adenocarcinoma (PDAC) Panc1 cells (American Tissue Cell Culture (ATCC, Manassas, VA, USA); product code: ATCC® CRL-1469™) a human tumor cell line showing a high glycolytic rate (Liu L, Gong L, Zhang Y, Li N. Glycolysis in Panc-1 human pancreatic cancer cells is inhibited by everolimus Experimental and therapeutic medicine (2013) 5: 338-342).
PANC-1 cells were maintained in DMEM supplemented with 10% FBS and 100 units of penicillin/streptomycin. After 72 h, cell proliferation was assayed by Trypan Blue exclusion method. IC50 value was determined by generating a dose-response curves by non-linear regression. Data are expressed as the mean±SD of three independent experiments, each performed in triplicate.

NC(=O)C(=O)O [oxamate, reference compound]
IC50 range, cell proliferation: within the millimolar range
